Data taken from the supplement of paper PMC10849652.
Some of the results follow.

The chains behind the UniProt entries cited, without tags or fusion partners. Where a name states a change or a piece, a line headed by the entry shows the natural chain unless it says otherwise.
UniProt P14649: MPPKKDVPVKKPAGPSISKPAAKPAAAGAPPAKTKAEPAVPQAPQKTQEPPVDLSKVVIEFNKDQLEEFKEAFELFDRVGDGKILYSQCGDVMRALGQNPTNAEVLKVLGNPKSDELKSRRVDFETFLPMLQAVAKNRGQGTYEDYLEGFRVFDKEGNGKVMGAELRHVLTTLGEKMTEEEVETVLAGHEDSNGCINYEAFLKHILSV
UniProt Q6UB35, whole entry, looked up: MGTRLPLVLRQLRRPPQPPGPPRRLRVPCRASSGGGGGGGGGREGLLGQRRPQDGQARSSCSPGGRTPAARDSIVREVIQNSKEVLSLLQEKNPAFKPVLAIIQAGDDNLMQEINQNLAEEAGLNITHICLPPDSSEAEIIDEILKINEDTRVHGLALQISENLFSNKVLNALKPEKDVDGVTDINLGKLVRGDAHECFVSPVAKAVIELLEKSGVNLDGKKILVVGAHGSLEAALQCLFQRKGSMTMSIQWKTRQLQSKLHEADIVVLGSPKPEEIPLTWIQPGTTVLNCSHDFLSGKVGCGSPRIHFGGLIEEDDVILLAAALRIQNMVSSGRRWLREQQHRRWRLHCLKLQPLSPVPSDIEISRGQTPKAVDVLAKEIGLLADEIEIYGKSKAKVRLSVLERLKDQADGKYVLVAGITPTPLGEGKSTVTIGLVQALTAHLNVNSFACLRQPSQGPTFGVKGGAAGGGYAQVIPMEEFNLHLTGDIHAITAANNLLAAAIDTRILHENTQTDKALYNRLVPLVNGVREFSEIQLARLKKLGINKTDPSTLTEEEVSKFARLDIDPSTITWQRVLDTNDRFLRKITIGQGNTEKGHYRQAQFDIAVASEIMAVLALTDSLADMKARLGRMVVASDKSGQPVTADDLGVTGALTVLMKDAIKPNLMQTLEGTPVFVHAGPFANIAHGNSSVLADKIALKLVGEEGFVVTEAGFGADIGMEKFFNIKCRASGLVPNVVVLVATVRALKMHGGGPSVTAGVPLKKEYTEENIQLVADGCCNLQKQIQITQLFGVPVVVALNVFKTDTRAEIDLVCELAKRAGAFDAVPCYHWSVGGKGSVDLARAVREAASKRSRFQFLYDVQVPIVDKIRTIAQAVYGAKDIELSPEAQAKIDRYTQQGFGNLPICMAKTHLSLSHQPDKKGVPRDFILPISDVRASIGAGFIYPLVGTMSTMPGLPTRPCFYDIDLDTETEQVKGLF
UniProt Q13505: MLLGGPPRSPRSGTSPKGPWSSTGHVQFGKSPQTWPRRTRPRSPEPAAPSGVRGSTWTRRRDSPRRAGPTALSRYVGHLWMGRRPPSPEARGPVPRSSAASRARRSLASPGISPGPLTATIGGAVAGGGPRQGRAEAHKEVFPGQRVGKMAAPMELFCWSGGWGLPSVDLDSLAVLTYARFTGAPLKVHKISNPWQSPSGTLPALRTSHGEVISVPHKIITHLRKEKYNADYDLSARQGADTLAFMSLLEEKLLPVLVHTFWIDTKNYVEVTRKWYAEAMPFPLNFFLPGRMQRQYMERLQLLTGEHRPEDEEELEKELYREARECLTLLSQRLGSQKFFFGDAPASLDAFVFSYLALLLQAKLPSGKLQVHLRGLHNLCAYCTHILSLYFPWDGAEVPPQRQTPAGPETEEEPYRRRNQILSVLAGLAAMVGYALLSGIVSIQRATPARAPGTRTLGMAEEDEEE
UniProt Q99417: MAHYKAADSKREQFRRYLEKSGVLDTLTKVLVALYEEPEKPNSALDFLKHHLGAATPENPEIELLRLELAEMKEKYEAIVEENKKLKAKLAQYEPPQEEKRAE
UniProt Q92614: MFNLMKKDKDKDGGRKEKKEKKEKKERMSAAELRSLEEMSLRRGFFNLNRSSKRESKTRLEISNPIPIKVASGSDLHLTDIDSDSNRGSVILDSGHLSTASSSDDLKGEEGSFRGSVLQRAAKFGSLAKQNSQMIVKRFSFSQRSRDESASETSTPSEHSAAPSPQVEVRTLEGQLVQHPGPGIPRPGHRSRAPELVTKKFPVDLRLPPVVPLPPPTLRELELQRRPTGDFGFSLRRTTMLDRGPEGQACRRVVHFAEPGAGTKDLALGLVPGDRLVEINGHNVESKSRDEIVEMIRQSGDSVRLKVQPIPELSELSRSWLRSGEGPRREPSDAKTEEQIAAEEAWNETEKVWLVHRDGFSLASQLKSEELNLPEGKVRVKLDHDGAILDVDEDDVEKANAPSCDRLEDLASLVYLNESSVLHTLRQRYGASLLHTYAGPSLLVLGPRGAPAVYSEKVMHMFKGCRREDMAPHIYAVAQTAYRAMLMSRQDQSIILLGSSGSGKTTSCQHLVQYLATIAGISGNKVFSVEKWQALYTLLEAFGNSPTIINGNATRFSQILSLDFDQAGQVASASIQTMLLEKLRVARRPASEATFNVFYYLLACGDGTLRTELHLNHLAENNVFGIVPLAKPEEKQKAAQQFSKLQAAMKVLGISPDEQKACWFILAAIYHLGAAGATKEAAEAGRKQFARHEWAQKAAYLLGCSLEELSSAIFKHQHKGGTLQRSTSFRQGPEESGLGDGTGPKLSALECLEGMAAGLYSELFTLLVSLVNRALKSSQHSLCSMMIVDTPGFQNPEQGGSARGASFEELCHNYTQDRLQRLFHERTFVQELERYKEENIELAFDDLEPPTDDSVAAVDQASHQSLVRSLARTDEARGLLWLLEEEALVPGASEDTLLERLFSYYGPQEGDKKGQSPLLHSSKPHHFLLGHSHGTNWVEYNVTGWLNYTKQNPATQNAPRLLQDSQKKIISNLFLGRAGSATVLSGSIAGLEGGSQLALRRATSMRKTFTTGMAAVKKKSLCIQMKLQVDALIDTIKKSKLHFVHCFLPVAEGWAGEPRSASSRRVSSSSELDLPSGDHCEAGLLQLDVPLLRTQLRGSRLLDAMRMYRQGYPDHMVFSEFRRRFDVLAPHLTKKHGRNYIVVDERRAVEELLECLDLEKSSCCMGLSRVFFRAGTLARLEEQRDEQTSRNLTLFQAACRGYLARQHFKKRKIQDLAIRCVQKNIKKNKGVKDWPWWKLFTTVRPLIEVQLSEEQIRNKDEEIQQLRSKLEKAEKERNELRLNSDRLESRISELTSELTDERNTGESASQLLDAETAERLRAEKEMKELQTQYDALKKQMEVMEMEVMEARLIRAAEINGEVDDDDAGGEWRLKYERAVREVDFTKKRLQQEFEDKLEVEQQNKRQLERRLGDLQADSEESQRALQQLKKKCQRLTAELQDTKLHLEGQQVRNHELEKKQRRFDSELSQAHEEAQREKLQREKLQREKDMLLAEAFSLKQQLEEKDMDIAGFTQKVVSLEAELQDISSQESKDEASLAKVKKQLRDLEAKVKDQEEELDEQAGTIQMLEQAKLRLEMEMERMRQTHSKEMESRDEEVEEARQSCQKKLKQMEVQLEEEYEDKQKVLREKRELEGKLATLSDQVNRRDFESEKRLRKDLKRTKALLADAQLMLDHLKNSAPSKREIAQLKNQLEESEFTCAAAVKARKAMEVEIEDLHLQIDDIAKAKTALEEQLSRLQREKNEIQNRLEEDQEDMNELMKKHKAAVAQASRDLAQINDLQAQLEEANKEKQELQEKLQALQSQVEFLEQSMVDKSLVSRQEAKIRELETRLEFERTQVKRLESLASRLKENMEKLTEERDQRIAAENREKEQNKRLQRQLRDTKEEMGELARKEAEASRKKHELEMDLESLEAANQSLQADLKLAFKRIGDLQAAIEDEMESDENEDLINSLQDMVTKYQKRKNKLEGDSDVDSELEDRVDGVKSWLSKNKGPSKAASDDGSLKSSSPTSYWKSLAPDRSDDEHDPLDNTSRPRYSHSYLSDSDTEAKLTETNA
UniProt Q96DH6: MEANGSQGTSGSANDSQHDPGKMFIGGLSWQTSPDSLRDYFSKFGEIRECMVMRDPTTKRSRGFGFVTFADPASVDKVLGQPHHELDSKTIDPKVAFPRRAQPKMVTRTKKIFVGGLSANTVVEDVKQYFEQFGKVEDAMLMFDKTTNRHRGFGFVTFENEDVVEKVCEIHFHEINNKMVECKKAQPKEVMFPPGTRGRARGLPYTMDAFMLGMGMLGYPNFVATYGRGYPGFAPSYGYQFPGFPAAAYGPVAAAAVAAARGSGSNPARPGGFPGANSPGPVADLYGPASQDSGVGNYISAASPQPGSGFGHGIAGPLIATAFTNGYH
UniProt P53602: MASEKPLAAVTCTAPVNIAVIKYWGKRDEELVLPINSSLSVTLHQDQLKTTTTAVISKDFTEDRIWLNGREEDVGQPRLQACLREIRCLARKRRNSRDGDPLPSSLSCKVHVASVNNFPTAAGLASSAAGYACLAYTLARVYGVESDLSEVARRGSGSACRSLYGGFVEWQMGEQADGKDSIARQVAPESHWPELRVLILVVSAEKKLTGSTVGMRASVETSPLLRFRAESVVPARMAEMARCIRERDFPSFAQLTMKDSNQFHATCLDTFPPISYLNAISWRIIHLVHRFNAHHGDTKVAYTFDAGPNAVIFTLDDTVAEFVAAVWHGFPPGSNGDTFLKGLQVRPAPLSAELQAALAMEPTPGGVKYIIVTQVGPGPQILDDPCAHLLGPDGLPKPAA
UniProt Q9Y217: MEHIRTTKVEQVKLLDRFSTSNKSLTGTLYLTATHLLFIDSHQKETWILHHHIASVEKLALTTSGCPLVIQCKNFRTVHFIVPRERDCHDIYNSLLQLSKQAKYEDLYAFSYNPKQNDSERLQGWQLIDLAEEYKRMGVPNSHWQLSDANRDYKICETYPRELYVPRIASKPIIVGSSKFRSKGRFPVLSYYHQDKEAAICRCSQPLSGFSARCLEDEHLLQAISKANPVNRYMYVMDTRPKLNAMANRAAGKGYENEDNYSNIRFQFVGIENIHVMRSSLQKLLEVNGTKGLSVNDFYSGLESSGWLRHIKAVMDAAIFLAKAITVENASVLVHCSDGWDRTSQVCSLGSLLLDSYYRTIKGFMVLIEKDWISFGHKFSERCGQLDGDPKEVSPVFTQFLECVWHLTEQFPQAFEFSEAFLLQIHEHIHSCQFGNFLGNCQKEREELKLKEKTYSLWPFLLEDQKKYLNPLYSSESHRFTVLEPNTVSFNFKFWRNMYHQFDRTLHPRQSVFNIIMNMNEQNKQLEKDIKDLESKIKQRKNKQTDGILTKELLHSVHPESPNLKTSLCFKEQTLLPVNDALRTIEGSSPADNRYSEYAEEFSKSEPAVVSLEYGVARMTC
UniProt P12829: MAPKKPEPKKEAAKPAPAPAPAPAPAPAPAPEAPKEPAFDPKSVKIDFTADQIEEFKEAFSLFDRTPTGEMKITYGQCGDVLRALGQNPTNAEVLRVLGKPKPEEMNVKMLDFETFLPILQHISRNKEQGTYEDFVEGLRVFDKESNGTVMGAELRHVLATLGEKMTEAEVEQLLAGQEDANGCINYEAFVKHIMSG
UniProt Q765P7: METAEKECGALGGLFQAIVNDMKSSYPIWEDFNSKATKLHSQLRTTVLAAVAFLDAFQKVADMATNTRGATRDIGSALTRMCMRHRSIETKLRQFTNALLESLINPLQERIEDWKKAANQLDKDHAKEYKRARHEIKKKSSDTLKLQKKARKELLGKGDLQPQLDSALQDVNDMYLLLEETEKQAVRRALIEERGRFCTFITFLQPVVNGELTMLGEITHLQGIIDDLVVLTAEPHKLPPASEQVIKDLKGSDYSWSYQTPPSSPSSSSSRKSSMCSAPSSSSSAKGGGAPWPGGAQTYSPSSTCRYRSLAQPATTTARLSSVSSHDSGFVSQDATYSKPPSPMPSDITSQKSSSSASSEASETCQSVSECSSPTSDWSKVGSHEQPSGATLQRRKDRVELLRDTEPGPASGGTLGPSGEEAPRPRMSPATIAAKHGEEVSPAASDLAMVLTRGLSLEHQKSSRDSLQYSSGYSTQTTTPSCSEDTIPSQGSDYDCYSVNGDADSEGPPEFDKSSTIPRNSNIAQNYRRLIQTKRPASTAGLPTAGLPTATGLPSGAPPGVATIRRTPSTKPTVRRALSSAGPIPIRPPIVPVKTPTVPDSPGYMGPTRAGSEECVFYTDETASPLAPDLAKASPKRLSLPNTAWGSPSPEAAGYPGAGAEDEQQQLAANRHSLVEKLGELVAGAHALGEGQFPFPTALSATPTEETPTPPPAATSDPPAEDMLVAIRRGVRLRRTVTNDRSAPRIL

How the values were obtained:
Experiment in all cases: log2 fold change, soluble protein after heating vs DMSO (PISA); higher = thermal stabilisation; K562 cells, 10 uM, 30 min; active = over 0.2 and 3.5 SD of the protein, either way, in both replicates (recomputed)
[1] = compound: CN1CCN(CCOc2cc(OC3CCOCC3)c3c(Nc4c(Cl)ccc5c4OCO5)ncnc3c2)CC1 [saracatinib]
Summary of the method: (§1)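 Soluble protein was quantified by TMTpro 16plex LC-MS/MS after channel sums were equalised. It was obtained as the supernatant after 21,000xg for 90 min from pooled aliquots of K562 cells (2×10^6 cells/mL, 10 μM compound, 30 min) heated for 3 min across 48°C-58°C and extracted in PBS with 0.5% NP-40 at 4°C. Thermal stability values are relative to control samples and come from duplicates. They are given as log2 fold changes.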

[2] = compound: CN1CCN(c2nc(C3=C(c4c[nH]c5ccccc45)C(=O)NC3=O)c3ccccc3n2)CC1 [sotrastaurin]
Summary of the method: as §1

[3] = compound: CN1CC[C@H](c2c(O)cc(O)c3c(=O)cc(-c4ccccc4Cl)oc23)[C@H](O)C1 [alvocidib]
Summary of the method: as §1

[4] = compound: CN1CCc2c(c3ccccc3n2Cc2ccc(C(=O)NO)cc2)C1 [Tubastatin A]
Summary of the method: as §1

[5] = compound: CNC(=O)C1=CC=CC=C1NC2=NC(=NC=C2Cl)NC3=C(C=C(C=C3)N4CCOCC4)OC
Summary of the method: as §1

[6] = compound: CNC(=O)c1ccc(Nc2ncc(C(F)(F)F)c(NCc3nccnc3N(C)S(C)(=O)=O)n2)cc1 [defactinib]
Summary of the method: as §1

[7] = compound: CNCc1ccc(-c2[nH]c3cc(F)cc4c3c2CCNC4=O)cc1 [rucaparib]
Summary of the method: as §1

[8] = compound: CNc1nc(-c2ccc3c(N)n[nH]c3c2)cc(N2C[C@@H](C(=O)NC3CCCCC3)CC[C@H]2C)n1
Summary of the method: as §1

[9] = compound: COC(=O)N[C@@H](C)CNc1nccc(-c2cn(C(C)C)nc2-c2cc(Cl)cc(NS(C)(=O)=O)c2F)n1 [encorafenib]
Summary of the method: as §1

[10] = compound: COC(=O)[C@H](CCSC)NC(=O)C1=C(C=C(C=C1)NC[C@H](CS)N)C2=CC=CC=C2
Summary of the method: as §1

[11] = compound: COC1=CC=C(C=C1)CN2C=CC3=C2C=C(C=C3)C(=O)NO
Summary of the method: as §1

[12] = compound: CON(C)C(=O)N1N=C(c2cc(F)ccc2F)S[C@@]1(CCCN)c1ccccc1 [filanesib]
Summary of the method: as §1

[13] = compound: CO[C@H]1C[C@@H]2CC[C@@H](C)[C@@](O)(O2)C(=O)C(=O)N2CCCC[C@H]2C(=O)O[C@H]([C@H](C)C[C@@H]2CC[C@H](n3cnnn3)[C@H](OC)C2)CC(=O)[C@H](C)/C=C(\C)[C@@H](O)[C@@H](OC)C(=O)[C@H](C)C[C@H](C)/C=C/C=C/C=C/1C [zotarolimus]
Summary of the method: as §1

[14] = compound: COc1cc(C(=O)O)ccc1NC(=O)[C@@H]1N[C@@H](CC(C)(C)C)[C@](C#N)(c2ccc(Cl)cc2F)[C@H]1c1cccc(Cl)c1F [idasanutlin]
Summary of the method: as §1

[15] = compound: COc1cc(Nc2ncc3c(n2)-c2ccc(Cl)cc2C(c2c(F)cccc2OC)=NC3)ccc1C(=O)O [alisertib]
Summary of the method: as §1

[16] = compound: COc1cc2nc(-c3cc(F)ccc3O)nc(N[C@@H]3CNC[C@H]3C(C)(C)O)c2cc1OC
Summary of the method: as §1

[17] = compound: COc1cc2ncnc(Nc3ccc(F)c(Cl)c3)c2cc1OCCCN1CCOCC1 [gefitinib]
Summary of the method: as §1

[18] = compound: COc1cccc2cc(-c3nc([C@H]4CC[C@H](C(=O)O)CC4)n4ncnc(N)c34)[nH]c12
Summary of the method: as §1

[19] = compound: CS(=O)(=O)CCNCc1ccc(-c2ccc3ncnc(Nc4ccc(OCc5cccc(F)c5)c(Cl)c4)c3c2)o1 [lapatinib]
Summary of the method: as §1

[20] = compound: CS(=O)(=O)N1CCN(Cc2cc3nc(-c4cccc5[nH]ncc45)nc(N4CCOCC4)c3s2)CC1 [pictilisib]
Summary of the method: as §1

Measured: log2 fold change

MRPL9 (UniProt Q9BYD2)
inactive: [1] -0.163 | [2] -0.109 | [3] 0.043 | [4] 0.081 | [5] -0.056 | [6] 0.108 | [7] 0.136 | [8] 0.141 | [9] 0.101 | [10] -0.057 | [11] 0.051 | [12] 0.119 | [13] 0.083 | [14] -0.048 | [15] 0.009 | [16] 0.02 | [17] -0.062 | [18] -0.05 | [19] 0.131 | [20] -0.002

MYL6B (UniProt P14649)
inactive: [1] 0.02 | [2] 0.034 | [3] -0.015 | [4] 0.007 | [5] 0.017 | [6] -0.006 | [7] -0.027 | [8] -0.104 | [9] 0.018 | [10] 0.02 | [11] -0.039 | [12] 0.022 | [13] -0.003 | [14] -0.002 | [15] -0.013 | [16] 0.005 | [17] 0.006 | [18] -0.046 | [19] -0.009 | [20] 0.023

MTHFD1L (UniProt Q6UB35)
inactive: [1] -0.006 | [2] 0.019 | [3] -0.086 | [4] -0.014 | [5] -0.024 | [6] -0.049 | [7] -0.022 | [8] 0.024 | [9] 0.027 | [10] -0.036 | [11] 0.021 | [12] -0.001 | [13] 0.023 | [14] -0.15 | [15] -0.071 | [16] 0.044 | [17] 0.03 | [18] 0.018 | [19] -0.006 | [20] 0.055

MTX1 (UniProt Q13505)
inactive: [1] -0.009 | [2] 0.041 | [3] -0.049 | [4] -0.007 | [5] 0.024 | [6] -0.034 | [7] -0.012 | [8] -0.022 | [9] -0.023 | [10] -0.044 | [11] 0.079 | [12] -0.094 | [13] 0.043 | [14] -0.014 | [15] 0.004 | [16] 0.154 | [17] 0.047 | [18] -0.015 | [19] 0.013 | [20] 0.041

MYCBP (UniProt Q99417)
inactive: [1] -0.034 | [2] 0.021 | [3] 0.02 | [4] 0.035 | [5] -0.015 | [6] 0.056 | [7] 0 | [8] -0.055 | [9] -0.003 | [10] 0.062 | [11] -0.058 | [12] -0.013 | [13] -0.044 | [14] 0.088 | [15] -0.069 | [16] 0.037 | [17] 0.032 | [18] 0.024 | [19] -0.035 | [20] 0.073

MTREX (UniProt P42285)
inactive: [1] -0.022 | [2] -0.026 | [3] -0.025 | [4] 0 | [5] 0.015 | [6] -0.004 | [7] 0 | [8] 0.043 | [9] -0.016 | [10] 0.008 | [11] 0.014 | [12] -0.048 | [13] -0.003 | [14] -0.089 | [15] -0.045 | [16] 0.073 | [17] -0.011 | [18] 0.022 | [19] 0 | [20] -0.005

MYO6 isoform 6 (UniProt Q9UM54)
inactive: [1] 0.07 | [2] 0.038 | [3] -0.083 | [4] -0.049 | [5] -0.041 | [6] -0.026 | [7] -0.009 | [8] 0.014 | [9] -0.001 | [10] 0.018 | [11] -0.054 | [12] 0.013 | [13] 0.002 | [14] -0.066 | [15] -0.057 | [16] 0.066 | [17] 0.04 | [18] 0.035 | [19] -0.026 | [20] 0.033

MYO18A (UniProt Q92614)
inactive: [1] -0.011 | [2] -0.018 | [3] 0.062 | [4] -0.013 | [5] -0.11 | [6] -0.018 | [7] 0.115 | [8] 0.072 | [9] 0.015 | [10] -0.042 | [11] -0.067 | [12] 0.1 | [13] 0 | [14] 0.06 | [15] -0.062 | [16] 0.044 | [17] -0.002 | [18] -0.006 | [19] 0.007 | [20] -0.035

MSI2 (UniProt Q96DH6)
inactive: [1] -0.021 | [2] 0.025 | [3] 0.111 | [4] 0.078 | [5] 0.066 | [6] 0.129 | [7] 0.117 | [8] 0.005 | [9] -0.004 | [10] -0.002 | [11] -0.043 | [12] 0.063 | [13] 0.007 | [14] 0.113 | [15] -0.05 | [16] 0.037 | [17] -0.079 | [18] 0.01 | [19] -0.014 | [20] -0.066

Fetched one by one from above (two):
MTX1 (UniProt Q13505)
inactive: [1] -0.009 | [2] 0.041 | [3] -0.049 | [4] -0.007 | [5] 0.024 | [6] -0.034 | [7] -0.012 | [8] -0.022 | [9] -0.023 | [10] -0.044 | [11] 0.079 | [12] -0.094 | [13] 0.043 | [14] -0.014 | [15] 0.004 | [16] 0.154 | [17] 0.047 | [18] -0.015 | [19] 0.013 | [20] 0.041

MTHFD1L (UniProt Q6UB35)
inactive: [1] -0.006 | [2] 0.019 | [3] -0.086 | [4] -0.014 | [5] -0.024 | [6] -0.049 | [7] -0.022 | [8] 0.024 | [9] 0.027 | [10] -0.036 | [11] 0.021 | [12] -0.001 | [13] 0.023 | [14] -0.15 | [15] -0.071 | [16] 0.044 | [17] 0.03 | [18] 0.018 | [19] -0.006 | [20] 0.055

Later entries.

MVD (UniProt P53602)
inactive: [1] 0.078 | [2] 0.019 | [3] -0.023 | [4] 0.005 | [5] -0.022 | [6] -0.034 | [7] -0.017 | [8] -0.031 | [9] -0.017 | [10] 0.012 | [11] 0.051 | [12] -0.068 | [13] -0.014 | [14] -0.031 | [15] -0.08 | [16] -0.026 | [17] 0.011 | [18] 0.006 | [19] 0.036 | [20] 0.024

MRPS34 (UniProt P82930)
inactive: [1] -0.111 | [2] 0.013 | [3] -0.035 | [4] 0.003 | [5] 0.089 | [6] 0.057 | [7] 0.077 | [8] 0.117 | [9] 0.044 | [10] -0.062 | [11] -0.025 | [12] 0.122 | [13] 0.11 | [14] -0.2 | [15] -0.036 | [16] 0.002 | [17] 0.072 | [18] 0.042 | [19] 0.064 | [20] -0.042

MTMR6 (UniProt Q9Y217)
inactive: [1] 0.11 | [2] 0.016 | [3] -0.028 | [4] -0.001 | [5] 0.027 | [6] -0.11 | [7] -0.086 | [8] 0.034 | [9] -0.041 | [10] -0.036 | [11] 0.109 | [12] -0.002 | [13] 0.075 | [14] 0.132 | [15] -0.112 | [16] 0.073 | [17] -0.07 | [18] 0.203 | [19] -0.016 | [20] 0.106

MYL4 (UniProt P12829)
inactive: [1] 0.032 | [2] 0.039 | [3] -0.003 | [4] 0.032 | [5] -0.012 | [6] 0.03 | [7] -0.047 | [8] -0.017 | [9] -0.036 | [10] -0.019 | [11] 0.033 | [12] 0.025 | [13] -0.011 | [14] -0.004 | [15] -0.046 | [16] 0.054 | [17] -0.03 | [18] 0.026 | [19] -0.091 | [20] 0.026

MRPS23 (UniProt Q9Y3D9)
inactive: [1] -0.068 | [2] -0.084 | [3] -0.085 | [4] 0.034 | [5] 0.074 | [6] 0.007 | [7] 0.025 | [8] 0.146 | [9] 0.024 | [10] -0.035 | [11] -0.054 | [12] 0.054 | [13] 0.049 | [14] -0.22 | [15] -0.026 | [16] -0.049 | [17] -0.046 | [18] 0.046 | [19] 0.062 | [20] -0.055

MRPS28 (UniProt Q9Y2Q9)
inactive: [1] -0.087 | [2] -0.065 | [3] 0.041 | [4] 0.01 | [5] -0.025 | [6] 0.032 | [7] 0.022 | [8] 0.125 | [9] -0.027 | [10] -0.109 | [11] -0.012 | [12] 0.036 | [13] 0.062 | [14] -0.118 | [15] 0.049 | [16] -0.037 | [17] 0.167 | [18] -0.075 | [19] 0.098 | [20] -0.051

MTSS2 (UniProt Q765P7)
inactive: [1] 0.062 | [2] 0.048 | [3] -0.007 | [4] 0.046 | [5] 0.044 | [6] -0.016 | [7] -0.221 | [8] 0.012 | [9] -0.07 | [10] 0.034 | [11] -0.045 | [12] -0.076 | [13] -0.023 | [14] -0.016 | [15] -0.039 | [16] 0.039 | [17] 0.03 | [18] 0.052 | [19] -0.061 | [20] 0.096
